# Laboratory results from the supplement of paper PMC3334620.
# Whole data set: some 33,000 sequences, median “E-score (-0.5 to 0.5)” near -0.0059, cut for the highest 2% near 0.26. This is one part of the list.
# Biological target: T1, Cin5 (UniProt P40917)
# T1 sequence: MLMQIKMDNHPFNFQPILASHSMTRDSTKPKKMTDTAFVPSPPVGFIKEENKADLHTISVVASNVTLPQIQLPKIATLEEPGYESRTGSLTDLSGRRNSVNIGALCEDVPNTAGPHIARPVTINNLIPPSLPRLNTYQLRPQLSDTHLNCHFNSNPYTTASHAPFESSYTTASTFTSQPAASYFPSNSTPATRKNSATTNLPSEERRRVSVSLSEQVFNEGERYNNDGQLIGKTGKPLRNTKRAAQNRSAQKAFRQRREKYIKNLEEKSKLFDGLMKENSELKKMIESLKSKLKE
# Assay: PBM E-score (8-mer binding enrichment) (E-score (-0.5 to 0.5)); higher = stronger / more preferred TF binding
# Conditions: protein concentration: 100 nM; construct: GST-full length
# Procedure, shortened: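 E-scores (a modified Wilcoxon-Mann-Whitney statistic) were assigned by the Universal PBM Analysis Suite to every ungapped eight-base word pooled with its reverse complement. The input came from universal all-10-mer Agilent arrays made double-stranded by primer extension and probed with GST-tagged yeast transcription factors at about 100-200 nM. Fluorescent anti-GST detected bound protein, and masliner normalised the scans.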
row,Sequence,PBM E-score
1,AGGCCATC,-0.0378
2,AGCAGTTC,0.00918
3,AAATGGAC,0.122
4,TCAGGTAA,0.125
5,CGTTATAA,0.0891
6,ATTAAAGC,0.00379
7,CAGCGCTC,-0.141
8,TCACTCCA,0.0865
9,CGCGTAAC,-0.0538
10,CGGTCAGA,-0.146
11,CTTCGCGA,0.00601
12,TCTTATAA,0.114
13,AAAAGGGT,-0.0833
14,TCGGATAA,0.102
15,AGTCCCCA,-0.191
16,ATCGCCGA,-0.0867
17,AAAGATTT,0.0951
18,CATTCGCC,-0.0624
19,CGTTATCC,0.0746
20,CAACTCTG,-0.112
21,AACAGACC,0.0233
22,CTCGGATC,0.0635
23,CCTGACCG,-0.247
24,ACGCGGTA,-0.114
25,GTTCAGTA,0.0391

row,Sequence,PBM E-score
1,GCATATAC,-0.0829
2,CCGGTGCC,-0.301
3,AGGCTGTG,-0.16
4,ACCTAGCC,-0.273
5,AACCCGGA,0.0215
6,ATGCCATC,0.091
7,GGGCAAAA,0.106
8,ACGGGCAT,-0.0832
9,GCAGGGAC,-0.163
10,GAACGCTA,-0.125
11,GCTAGAGC,-0.243
12,GTATAGCA,0.165
13,CCTTCCAA,0.0613
14,TACACCTA,0.173
15,CATAGGCG,-0.0328
16,CACAACAC,0.107
17,CAGTCCGG,-0.322
18,ATTGCTCC,-0.049
19,CTACGGTC,-0.216
20,AAATCATT,1e-05
21,CTCCATTC,-0.0433
22,CACAGTAC,0.00208
23,CCCTTTTC,-0.0842
24,AGAATCCC,0.0372
25,CTCGGGGC,-0.098

row,Sequence,PBM E-score
1,AGCTTCGA,-0.144
2,AGGATTCG,0.0212
3,CATGAGTA,-0.00989
4,TCTGGACA,-0.0707
5,ACTGTCTC,-0.0312
6,ACTTAAGT,0.012
7,ATTGTGCG,-0.0502
8,ACAGAGCG,-0.195
9,GAGGGGAC,-0.0152
10,CATTACCG,-0.0622
11,CGATTAAC,0.0945
12,ACACATCA,0.0126
13,ACAGACCG,0.0357
14,CCCGTCTA,-0.0276
15,AATGGCAG,0.0479
16,ACATAACA,0.286
17,AGGTGACA,0.00628
18,ATATTTGA,0.22
19,ATGCCTTA,-0.11
20,AGTCACCA,-0.0986
21,AATCATGT,0.227
22,GGTCCTCA,-0.0981
23,GCCCATGA,-0.0238
24,GCACGCCC,-0.145
25,GAGTTTGC,-0.0356

row,Sequence,PBM E-score
1,CTAAGCTC,-0.122
2,ATGGTGCG,-0.027
3,ACGGCCCT,-0.194
4,CACTTAAG,0.0422
5,CTCAACAG,-0.128
6,CTATCTTA,0.106
7,GCTAAATA,0.124
8,CCGGGTGC,-0.186
9,CAAATGTA,0.268
10,GACGATTA,0.151
11,CCGACCCG,-0.0535
12,GGAGTTAC,0.0554
13,AATCACAC,0.0817
14,GAAGACGC,-0.118
15,CACCCCGG,-0.162
16,AGGTTACT,-0.0428
17,CAGCGGAA,0.0943
18,CAATATCA,0.108
19,GTCAGAAC,-0.0522
20,GCGGAGTA,0.0459
21,ACCCGGGA,0.00162
22,CACAATCG,-0.0887
23,CCGCTAAC,0.0261
24,GAAACAGC,-0.0885
25,TAGGCGCA,-0.0242

row,Sequence,PBM E-score
1,CCATGGCA,-0.0412
2,CCTGCTAC,0.0069
3,ACAGAACA,0.136
4,ACTCCGCA,-0.106
5,AATGGGCC,-0.094
6,ATCACAGC,0.0907
7,CCCTGATC,-0.13
8,CCCATCAC,-0.103
9,CGAGAAGC,0.0379
10,CTGTCATA,0.0932
11,ACCGGTCG,-0.231
12,AGCGGAAC,0.048
13,GGACAATA,0.122
14,ATAGCGGA,0.0453
15,CTAGCTTA,0.256
16,AGAAAAAT,0.154
17,ACTCGAGG,-0.0419
18,CCTTGCCG,-0.0854
19,GACAGCGC,-0.101
20,GACGGAAC,0.0876
21,TTATCCAA,0.178
22,AGGTCTGA,-0.073
23,AGCAGTGG,-0.0673
24,CTGCGACC,-0.211
25,AACGCCGA,-0.12

row,Sequence,PBM E-score
1,AGAATTGA,0.0267
2,GTTAGTGA,0.047
3,ACGTGTGC,-0.0913
4,AAAGTCGG,-0.115
5,AGAACAAG,0.198
6,AATGATCC,-0.0795
7,AAGAGGCA,-0.125
8,AAGTAGCT,-0.0241
9,GTTGTATA,0.133
10,CACGTGCC,-0.0768
11,AGTTAGAG,-0.0783
12,CTGTTTCC,-0.16
13,CCAAGCAA,0.0163
14,AGACTCTG,-0.00683
15,AAAAATGT,0.0261
16,GCCATAGC,-0.158
17,CCTGTAAC,0.0246
18,AAATCATC,0.135
19,AGGAAATC,0.128
20,ACGTTGCG,0.00162
21,CCACAAAA,0.139
22,CCCAACAC,-0.0295
23,ACTATAAT,0.27
24,CACTATGA,0.0374
25,ATCAAACG,0.0519

# 4 records drawn at random from the list so far:
row,Sequence,PBM E-score
11,GCTAGAGC,-0.243
24,ACGCGGTA,-0.114
23,ACTATAAT,0.27
3,AGGCTGTG,-0.16

# (further entries)

row,Sequence,PBM E-score
1,GCGATCGA,0.246
2,ACTTCGGC,-0.0187
3,ATTGAAAA,0.235
4,GCTAATTA,0.243
5,ATCCCGAT,0.152
6,ACCCTTCC,-0.0557
7,CAGATTCA,-0.0836
8,GTGGTAAA,-0.0874
9,GATTCTGC,0.118
10,ACCGTGCA,-0.0977
11,CCAGAATA,0.0691
12,AAAAACTC,-0.0235
13,AACATCTA,-0.0777
14,CCAACTAA,0.186
15,CACGGTCC,-0.335
16,CCACTTCA,-0.0834
17,ATTACTGC,0.22
18,GTAGAGAA,0.0426
19,AGCTCCCA,-0.153
20,CGGTTTAA,-0.0878
21,CGTTAGGA,0.0891
22,CACTATTA,0.178

# 7 entries from above, bar-delimited:
row | Sequence | PBM E-score
3 | ATTGAAAA | 0.235
5 | ATCCCGAT | 0.152
7 | CAGATTCA | -0.0836
10 | ACCGTGCA | -0.0977
13 | AACATCTA | -0.0777
15 | CACGGTCC | -0.335
22 | CACTATTA | 0.178
